Here are results for 2 substances from publication PMC11481411.

Protein sequences, listed by entry. Tags and fused reporters are not part of them.
UniProt O95758: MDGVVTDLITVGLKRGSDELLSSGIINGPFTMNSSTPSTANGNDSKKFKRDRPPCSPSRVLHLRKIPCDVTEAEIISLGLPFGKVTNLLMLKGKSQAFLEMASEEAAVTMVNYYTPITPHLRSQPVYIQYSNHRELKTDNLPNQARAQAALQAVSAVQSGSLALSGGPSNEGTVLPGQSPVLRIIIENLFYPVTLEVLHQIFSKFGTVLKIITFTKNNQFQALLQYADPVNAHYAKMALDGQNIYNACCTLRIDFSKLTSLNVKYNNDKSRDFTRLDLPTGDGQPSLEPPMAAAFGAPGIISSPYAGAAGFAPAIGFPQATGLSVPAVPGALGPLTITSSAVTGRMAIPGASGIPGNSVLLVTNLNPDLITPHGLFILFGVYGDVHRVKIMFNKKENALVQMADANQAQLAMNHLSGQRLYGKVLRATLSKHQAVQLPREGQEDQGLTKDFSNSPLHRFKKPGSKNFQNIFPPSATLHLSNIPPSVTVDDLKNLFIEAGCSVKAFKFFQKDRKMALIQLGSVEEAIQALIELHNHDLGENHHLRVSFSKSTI
UniProt Q9UBU8: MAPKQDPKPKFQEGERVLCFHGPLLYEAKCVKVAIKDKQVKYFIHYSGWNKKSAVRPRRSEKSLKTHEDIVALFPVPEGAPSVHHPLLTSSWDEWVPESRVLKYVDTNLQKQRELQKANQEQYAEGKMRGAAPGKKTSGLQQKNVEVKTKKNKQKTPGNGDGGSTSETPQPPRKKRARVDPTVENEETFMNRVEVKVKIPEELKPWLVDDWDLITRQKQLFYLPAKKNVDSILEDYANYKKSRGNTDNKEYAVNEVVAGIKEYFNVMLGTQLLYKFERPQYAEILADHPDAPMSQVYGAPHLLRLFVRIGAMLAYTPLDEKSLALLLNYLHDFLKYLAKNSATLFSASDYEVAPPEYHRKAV

These are yes or no findings as the source states them, for the method shown. In cells and extracts the contact can be indirect. Some binding calls cover weakened binding; strength is not graded here.

Experiment [1] deals with polypyrimidine region-binding protein 3 (PTBP3) (human (endogenous in human cell lines; line not stated)) (UniProt O95758). The experiment can be described thus: co-IP; cell lysates on protein A/G magnetic beads carrying MRG15 or PTBP3 antibody, overnight at 4 °C, western blot; also after hnRNPL overexpression (Figure S5J).
In experiment [2] the target is T1, hnRNPL (human (endogenous in human cell lines; line not stated)) (UniProt P14866).
T1 sequence: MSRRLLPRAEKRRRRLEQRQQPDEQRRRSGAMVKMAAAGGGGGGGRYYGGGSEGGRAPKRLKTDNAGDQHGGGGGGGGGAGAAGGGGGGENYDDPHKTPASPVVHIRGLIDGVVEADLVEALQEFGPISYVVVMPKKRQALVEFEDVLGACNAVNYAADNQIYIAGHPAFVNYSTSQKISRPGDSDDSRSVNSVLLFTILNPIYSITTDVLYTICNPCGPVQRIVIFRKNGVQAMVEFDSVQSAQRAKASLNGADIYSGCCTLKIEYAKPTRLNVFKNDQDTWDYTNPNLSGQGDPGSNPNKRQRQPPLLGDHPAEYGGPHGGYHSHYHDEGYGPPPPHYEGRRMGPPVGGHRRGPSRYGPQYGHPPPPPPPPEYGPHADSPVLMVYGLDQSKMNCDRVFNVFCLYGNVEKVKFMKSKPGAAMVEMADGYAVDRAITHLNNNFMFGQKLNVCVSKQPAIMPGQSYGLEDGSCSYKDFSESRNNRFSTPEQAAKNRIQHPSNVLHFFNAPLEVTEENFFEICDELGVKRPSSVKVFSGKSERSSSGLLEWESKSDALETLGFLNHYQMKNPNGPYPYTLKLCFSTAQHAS
The experiment can be described thus: co-IP; cell lysates on protein A/G magnetic beads carrying antibody, overnight at 4 °C, western blot; with or without RNase A. For orientation: A western blot detects proteins with antibodies after separation by electrophoresis.

For “histone tail-binding protein MRG15 (from UniProt Q9UBU8 1-362)”, the binding entry in experiment [1] is listed as “binds”.

“polypyrimidine region-binding protein 3 (PTBP3) (from UniProt O95758 1-552)”: the binding entry in experiment [2] was “binds”.
